No constants are given. Whether binding was seen depends on the method and setting. In cells and extracts the contact can be indirect. These calls come from enrichment with a bait or labelling near it, and not all partners need be listed. No binding means not detected with the bait.

Chains of the proteins cited; added tags and fusions are not shown. Residues count along the entry.
UniProt P62812, residues 28-455: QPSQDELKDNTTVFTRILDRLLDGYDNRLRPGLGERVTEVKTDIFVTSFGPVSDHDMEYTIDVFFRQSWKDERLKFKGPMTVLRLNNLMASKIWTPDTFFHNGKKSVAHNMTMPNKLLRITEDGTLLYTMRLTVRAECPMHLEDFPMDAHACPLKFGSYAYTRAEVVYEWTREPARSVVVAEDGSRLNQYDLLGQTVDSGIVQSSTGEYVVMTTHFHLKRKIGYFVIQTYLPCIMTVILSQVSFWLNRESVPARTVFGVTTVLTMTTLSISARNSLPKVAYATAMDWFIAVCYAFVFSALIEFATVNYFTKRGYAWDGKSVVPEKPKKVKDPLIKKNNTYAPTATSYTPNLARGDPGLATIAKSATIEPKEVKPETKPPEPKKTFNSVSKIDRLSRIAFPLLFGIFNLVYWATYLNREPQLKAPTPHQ
UniProt Q9EPN1: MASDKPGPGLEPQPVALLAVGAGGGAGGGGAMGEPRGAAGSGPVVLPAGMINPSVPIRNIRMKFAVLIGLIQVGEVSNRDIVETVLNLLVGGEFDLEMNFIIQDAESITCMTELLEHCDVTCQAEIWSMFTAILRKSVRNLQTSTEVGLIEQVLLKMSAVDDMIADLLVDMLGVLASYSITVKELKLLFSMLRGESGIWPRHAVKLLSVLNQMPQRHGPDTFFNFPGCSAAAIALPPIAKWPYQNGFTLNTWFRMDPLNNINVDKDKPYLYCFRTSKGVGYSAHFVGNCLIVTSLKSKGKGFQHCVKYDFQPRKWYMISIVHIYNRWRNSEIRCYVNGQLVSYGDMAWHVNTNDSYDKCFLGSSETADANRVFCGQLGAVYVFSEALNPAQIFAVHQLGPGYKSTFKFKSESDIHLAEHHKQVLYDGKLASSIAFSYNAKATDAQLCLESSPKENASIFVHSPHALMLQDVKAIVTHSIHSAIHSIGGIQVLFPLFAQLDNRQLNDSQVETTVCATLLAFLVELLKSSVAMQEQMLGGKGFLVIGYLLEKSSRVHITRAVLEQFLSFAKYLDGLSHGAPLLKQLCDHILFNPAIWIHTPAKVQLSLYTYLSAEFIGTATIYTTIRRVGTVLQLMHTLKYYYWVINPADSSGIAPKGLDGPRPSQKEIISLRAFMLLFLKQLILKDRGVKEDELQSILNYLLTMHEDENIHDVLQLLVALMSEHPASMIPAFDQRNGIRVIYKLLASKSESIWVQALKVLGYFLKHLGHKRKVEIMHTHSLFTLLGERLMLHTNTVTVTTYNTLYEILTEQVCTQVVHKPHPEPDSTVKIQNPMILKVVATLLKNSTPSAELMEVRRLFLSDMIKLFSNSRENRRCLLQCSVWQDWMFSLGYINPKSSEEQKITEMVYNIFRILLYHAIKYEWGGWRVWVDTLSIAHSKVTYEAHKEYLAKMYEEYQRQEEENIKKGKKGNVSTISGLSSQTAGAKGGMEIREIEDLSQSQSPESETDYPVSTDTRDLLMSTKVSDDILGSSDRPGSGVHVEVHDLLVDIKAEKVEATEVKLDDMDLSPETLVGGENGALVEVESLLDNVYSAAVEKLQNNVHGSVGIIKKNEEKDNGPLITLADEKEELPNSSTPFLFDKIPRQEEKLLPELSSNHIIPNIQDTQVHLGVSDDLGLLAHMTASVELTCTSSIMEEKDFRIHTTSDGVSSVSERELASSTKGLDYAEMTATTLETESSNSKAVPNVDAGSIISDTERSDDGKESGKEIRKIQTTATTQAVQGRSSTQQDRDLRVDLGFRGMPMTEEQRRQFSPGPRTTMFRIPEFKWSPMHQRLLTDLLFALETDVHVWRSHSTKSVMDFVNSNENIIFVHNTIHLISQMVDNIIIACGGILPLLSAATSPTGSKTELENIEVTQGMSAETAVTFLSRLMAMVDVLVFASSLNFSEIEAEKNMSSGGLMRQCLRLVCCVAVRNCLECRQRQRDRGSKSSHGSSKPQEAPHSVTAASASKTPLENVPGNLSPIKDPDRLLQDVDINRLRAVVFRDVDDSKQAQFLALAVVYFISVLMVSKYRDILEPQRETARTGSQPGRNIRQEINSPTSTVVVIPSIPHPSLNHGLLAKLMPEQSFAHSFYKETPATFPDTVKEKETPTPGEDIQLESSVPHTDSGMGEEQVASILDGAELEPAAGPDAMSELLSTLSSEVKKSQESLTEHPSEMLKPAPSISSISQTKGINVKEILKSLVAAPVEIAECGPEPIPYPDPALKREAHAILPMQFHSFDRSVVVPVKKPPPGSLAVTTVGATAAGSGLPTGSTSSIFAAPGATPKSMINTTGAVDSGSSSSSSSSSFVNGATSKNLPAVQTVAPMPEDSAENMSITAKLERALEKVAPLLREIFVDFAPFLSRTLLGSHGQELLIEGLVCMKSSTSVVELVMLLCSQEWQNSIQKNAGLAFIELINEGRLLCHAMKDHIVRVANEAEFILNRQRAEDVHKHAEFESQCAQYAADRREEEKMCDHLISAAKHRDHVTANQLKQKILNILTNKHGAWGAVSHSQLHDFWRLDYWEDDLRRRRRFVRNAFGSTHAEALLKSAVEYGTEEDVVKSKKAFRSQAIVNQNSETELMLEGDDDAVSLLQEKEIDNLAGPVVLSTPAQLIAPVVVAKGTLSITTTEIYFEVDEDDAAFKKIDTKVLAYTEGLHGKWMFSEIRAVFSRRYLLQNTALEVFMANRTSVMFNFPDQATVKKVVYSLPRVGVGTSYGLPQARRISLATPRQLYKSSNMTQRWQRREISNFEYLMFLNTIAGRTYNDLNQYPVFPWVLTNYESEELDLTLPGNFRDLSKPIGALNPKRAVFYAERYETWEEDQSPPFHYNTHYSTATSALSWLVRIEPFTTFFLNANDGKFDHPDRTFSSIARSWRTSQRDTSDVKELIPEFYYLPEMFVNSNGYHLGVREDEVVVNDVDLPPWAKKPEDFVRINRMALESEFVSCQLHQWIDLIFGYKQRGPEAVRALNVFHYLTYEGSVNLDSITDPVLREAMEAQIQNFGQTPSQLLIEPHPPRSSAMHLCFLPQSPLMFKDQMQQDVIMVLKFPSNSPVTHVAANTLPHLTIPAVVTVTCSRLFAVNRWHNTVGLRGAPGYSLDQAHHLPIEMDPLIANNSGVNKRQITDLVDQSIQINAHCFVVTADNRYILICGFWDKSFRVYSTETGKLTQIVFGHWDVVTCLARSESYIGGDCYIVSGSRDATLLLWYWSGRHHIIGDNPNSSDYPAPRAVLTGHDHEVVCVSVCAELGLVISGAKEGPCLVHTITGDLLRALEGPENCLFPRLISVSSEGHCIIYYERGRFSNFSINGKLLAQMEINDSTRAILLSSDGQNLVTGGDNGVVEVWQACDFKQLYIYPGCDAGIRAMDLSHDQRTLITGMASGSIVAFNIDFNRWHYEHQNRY
UniProt Q99K10, residues 46-843: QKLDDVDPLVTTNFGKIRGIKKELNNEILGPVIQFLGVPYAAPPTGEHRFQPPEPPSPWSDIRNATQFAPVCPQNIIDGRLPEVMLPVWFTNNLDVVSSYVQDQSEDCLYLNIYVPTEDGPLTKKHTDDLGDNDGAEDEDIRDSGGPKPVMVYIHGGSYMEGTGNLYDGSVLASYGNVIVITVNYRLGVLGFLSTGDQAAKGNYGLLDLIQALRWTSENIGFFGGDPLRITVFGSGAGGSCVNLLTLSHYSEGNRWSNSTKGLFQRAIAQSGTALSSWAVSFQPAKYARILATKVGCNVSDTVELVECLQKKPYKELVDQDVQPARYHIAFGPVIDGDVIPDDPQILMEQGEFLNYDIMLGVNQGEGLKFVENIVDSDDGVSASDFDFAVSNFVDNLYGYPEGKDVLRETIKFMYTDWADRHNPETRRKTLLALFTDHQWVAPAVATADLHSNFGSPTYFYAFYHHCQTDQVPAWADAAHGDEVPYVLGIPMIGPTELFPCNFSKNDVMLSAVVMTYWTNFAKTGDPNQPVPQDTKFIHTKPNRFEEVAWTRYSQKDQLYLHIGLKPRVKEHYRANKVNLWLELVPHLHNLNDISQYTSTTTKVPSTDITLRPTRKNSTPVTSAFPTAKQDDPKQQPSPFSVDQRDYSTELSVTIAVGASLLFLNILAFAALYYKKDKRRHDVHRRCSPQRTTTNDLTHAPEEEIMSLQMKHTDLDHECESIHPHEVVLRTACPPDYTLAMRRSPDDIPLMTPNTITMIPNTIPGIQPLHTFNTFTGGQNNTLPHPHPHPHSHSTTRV
UniProt Q69ZK9, residues 15-836: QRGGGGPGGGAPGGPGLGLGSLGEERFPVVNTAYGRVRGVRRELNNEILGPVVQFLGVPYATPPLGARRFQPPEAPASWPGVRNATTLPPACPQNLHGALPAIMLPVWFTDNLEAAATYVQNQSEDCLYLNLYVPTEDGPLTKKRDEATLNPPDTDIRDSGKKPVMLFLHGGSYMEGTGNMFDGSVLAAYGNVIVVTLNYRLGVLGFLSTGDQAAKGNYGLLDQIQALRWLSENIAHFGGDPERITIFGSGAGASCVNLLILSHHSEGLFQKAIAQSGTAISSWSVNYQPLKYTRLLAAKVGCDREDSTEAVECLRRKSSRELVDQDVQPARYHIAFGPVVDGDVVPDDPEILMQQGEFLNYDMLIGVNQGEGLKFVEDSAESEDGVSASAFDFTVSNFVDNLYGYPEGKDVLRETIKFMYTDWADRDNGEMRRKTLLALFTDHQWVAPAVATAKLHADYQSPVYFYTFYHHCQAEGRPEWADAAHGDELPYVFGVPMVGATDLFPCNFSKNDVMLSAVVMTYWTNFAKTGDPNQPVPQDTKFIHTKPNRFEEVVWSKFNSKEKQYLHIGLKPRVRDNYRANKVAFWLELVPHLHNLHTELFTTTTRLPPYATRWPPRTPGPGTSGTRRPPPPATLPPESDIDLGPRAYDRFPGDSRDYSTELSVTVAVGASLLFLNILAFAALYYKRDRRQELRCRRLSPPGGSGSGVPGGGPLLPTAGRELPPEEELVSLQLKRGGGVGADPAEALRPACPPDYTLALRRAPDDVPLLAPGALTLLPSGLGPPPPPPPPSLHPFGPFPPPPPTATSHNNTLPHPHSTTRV
UniProt Q8BYM5, residues 35-825: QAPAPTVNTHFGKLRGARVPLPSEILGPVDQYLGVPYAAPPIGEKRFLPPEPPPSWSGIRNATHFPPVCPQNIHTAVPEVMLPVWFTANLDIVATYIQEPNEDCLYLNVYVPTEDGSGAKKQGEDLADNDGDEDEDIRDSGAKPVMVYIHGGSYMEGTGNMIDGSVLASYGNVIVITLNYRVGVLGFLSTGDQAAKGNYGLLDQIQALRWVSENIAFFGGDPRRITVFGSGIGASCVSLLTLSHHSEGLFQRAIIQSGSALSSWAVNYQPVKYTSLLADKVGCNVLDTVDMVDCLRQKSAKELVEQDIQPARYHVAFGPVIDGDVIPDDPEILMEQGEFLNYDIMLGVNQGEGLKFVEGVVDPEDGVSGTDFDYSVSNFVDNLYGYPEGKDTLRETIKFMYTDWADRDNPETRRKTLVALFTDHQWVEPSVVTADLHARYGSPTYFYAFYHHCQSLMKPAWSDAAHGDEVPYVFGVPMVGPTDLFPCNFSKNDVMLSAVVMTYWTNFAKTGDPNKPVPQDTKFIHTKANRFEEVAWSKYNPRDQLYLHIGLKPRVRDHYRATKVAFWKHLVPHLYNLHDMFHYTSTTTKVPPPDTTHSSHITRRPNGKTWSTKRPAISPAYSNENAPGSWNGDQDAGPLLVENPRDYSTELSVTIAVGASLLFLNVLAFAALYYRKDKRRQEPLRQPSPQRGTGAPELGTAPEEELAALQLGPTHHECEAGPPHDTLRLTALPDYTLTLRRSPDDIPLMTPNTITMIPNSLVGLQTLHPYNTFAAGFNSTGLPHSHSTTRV

The record followed here is publication PMC3387162.

For the test, the target named is Venus-GABAA receptor α1 subunit fusion (inhibitory synapse affinity tag) (UniProt P62812). As to the kind of experiment: affinity purification with mass spectrometry; same immunopurification via VGABAARα1 (tagged sample) or eGFP (control sample); FASP II on-membrane digestion, LC-MS/MS on LTQ-Orbitrap XL, X!Tandem search, cutoff E = 10^-4; two replicates; proteins found with eGFP subtracted.
Take “Neurexin I (from UniProt Q9CS84 31-1514)”: the binding result was “binds”.
In the case of “Neurobeachin (from UniProt Q9EPN1 1-2936)” it was “binds”; in that of “Neuroligin 1 (from UniProt Q99K10 46-843)”, “no binding”; in that of “Neuroligin 2 (from UniProt Q69ZK9 15-836)”, “binds”.
With “Neuroligin 3 (from UniProt Q8BYM5 35-825)” the entry was “binds”.
